Reference: PMC8222926
No constants are given. Whether binding was seen depends on the method and setting. Binding seen in cells or lysates may run through a third protein. Some binding calls cover weakened binding; strength is not graded here. For some assays here: Sequences can lack the tags named with a protein.

Protein sequences, listed by entry. Tags and fused reporters are not part of them. Lines headed by an entry give the natural chain unless they say otherwise; changes in a name come on top.
UniProt A4D1B5: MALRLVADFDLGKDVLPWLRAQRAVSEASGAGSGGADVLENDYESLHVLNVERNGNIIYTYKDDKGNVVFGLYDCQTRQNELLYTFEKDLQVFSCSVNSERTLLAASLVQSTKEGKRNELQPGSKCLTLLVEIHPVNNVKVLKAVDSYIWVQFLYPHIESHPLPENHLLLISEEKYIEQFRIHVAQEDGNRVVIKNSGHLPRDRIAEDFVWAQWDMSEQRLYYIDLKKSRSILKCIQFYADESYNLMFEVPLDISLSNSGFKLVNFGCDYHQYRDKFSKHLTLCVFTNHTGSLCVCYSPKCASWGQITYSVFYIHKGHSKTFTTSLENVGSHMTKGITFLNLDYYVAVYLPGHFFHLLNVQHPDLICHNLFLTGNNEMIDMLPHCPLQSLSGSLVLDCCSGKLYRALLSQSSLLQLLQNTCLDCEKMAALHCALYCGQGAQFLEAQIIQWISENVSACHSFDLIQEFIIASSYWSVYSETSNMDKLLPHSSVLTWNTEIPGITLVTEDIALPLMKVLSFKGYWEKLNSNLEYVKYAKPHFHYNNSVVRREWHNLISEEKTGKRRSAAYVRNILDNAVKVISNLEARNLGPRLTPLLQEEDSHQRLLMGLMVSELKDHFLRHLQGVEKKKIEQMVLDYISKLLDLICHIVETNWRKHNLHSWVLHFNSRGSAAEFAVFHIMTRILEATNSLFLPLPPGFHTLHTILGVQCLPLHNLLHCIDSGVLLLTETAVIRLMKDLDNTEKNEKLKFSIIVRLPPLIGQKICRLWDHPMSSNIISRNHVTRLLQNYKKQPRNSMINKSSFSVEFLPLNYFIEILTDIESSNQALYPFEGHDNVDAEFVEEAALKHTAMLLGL

Tests used:
[1] = target: T1, endogenous Fe65 (human (endogenous in A549; legend: HEK293T)) (UniProt O00213); assay: co-IP; endogenous proteins; Fe65 antibody; lysate of A549 cells (text; the legend says HEK293T); 0.25% CHAPSO; protein G magnetic beads; immunoblot
T1 sequence: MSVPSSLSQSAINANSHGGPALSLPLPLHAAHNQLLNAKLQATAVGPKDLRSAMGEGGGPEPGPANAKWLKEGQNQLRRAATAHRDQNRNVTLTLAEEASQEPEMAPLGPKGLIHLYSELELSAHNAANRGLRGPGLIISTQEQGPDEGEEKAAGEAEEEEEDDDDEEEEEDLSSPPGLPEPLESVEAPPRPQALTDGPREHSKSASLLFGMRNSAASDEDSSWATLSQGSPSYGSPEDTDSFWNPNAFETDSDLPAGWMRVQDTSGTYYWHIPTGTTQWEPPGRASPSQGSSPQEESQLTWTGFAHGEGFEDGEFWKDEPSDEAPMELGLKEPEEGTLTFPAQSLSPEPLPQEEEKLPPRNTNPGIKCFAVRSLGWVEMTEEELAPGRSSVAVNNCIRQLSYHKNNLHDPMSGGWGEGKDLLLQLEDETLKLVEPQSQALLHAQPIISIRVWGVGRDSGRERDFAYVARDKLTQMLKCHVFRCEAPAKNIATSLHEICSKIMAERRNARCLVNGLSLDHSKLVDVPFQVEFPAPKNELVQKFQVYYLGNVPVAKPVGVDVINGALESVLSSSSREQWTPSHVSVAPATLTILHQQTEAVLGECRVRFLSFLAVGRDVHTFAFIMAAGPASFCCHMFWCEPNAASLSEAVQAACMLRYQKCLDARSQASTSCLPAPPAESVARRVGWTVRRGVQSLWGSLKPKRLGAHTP

[2] = target: T2, full-length Fe65 (Flag-tagged) (UniProt O00213); assay: co-IP; transiently transfected tagged proteins (HEK293T or N2a cells); lysis in 1% CHAPSO buffer (50 mM Tris-HCl, 150 mM NaCl, pH 7.4), diluted to 0.25% CHAPSO; primary antibody or IgG control overnight at 4°C, protein G magnetic beads; immunoblot
T2 sequence: T1 sequence

Substance: endogenous GSAP (from UniProt A4D1B5 1-854)
- binding [1]: binds

Substance: human GSAP-16k with HA tag (aa 733–854) (from UniProt A4D1B5 733-854) (domain or fragment)
- binding [2]: binds
